The record followed here is publication PMC8259991, “Transgenerational inheritance of centromere identity requires the CENP-A N-terminal tail in the C. elegans maternal germ line” (PLoS Biology, 2021).

Amino acid sequences for entries named in this document (tags omitted). A change or cut given only in a name is not applied to a line headed by its entry. Chains listed by the source or under a name are the forms on record and can include a tag or linker. Residues count along the entry.
UniProt P34470: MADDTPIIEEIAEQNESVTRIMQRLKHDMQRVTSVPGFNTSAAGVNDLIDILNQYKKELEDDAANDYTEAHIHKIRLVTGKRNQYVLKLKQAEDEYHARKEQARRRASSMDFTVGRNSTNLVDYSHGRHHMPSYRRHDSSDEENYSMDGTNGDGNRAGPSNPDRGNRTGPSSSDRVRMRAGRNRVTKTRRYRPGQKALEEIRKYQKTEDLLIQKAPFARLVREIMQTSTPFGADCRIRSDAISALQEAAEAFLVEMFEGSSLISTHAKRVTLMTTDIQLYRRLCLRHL
CENP-A aa 1-122, yeast two-hybrid DNA-binding domain fusion: residues 1-122 of P34470
HA-tagged CENP-A^aa100-287 (CENP-A Δ-tail), from C. elegans embryos: residues 100-287 of P34470

In test [1] the target is CENP-A aa 1-122, yeast two-hybrid DNA-binding domain fusion (C. elegans) (UniProt P34470). In words: two-hybrid; GAL4-based system, yeast strain MAV203; KNL-2 cDNA fragments in pDEST22 (activation domain), CENP-A cDNA fragments in pDEST32 (DNA binding domain); growth on SD-LTH with 5 mM 3AT.
The target of test [2] is full-length CENP-A (HCP-3), yeast two-hybrid DNA-binding domain fusion (C. elegans) (UniProt P34470). The test is described as above.
Test [3] addresses HA-tagged CENP-A full-length (FL), from C. elegans embryos (C. elegans) (UniProt P34470). In words: co-IP; anti-HA magnetic beads on C. elegans embryonic extracts (lysis buffer with 500 mM NaCl, 1% NP-40, 0.25% deoxycholate), 2 h or overnight at 4°C; KNL-2 detected with anti-OLLAS.
The target of test [4] is HA-tagged CENP-A^aa100-287 (CENP-A Δ-tail), from C. elegans embryos (C. elegans) (UniProt P34470). Described as above.

These are yes or no findings as the source states them, for the method shown. For some of these results: In cells and extracts the contact can be indirect. Some entries that bind do so weakly or less than the wild type. Tags and fused reporters may be left off the sequences shown.

B1: KNL-2 central region (aa 269-470), yeast two-hybrid activation domain fusion (domain or fragment, UniProt O44548 269-470)
chain: QIPPTQKSQDSVQAVQPPPPRPAARNAQFASDADLFAVPKAPPSKSVRNLAASNVDIFADVDSVLDTFHFESTPGRVRKPGRRNVSSPSPEPRHRSSSRDGYEQSRYSQRYEHDNSRWSRHNATYRRHEDESRMSRKRSIVRDDFEYSRRHDDGARRRDYYDADIQGDSKRYRGRDASSSSGRSVRFEEEHRRHGDEYRDPR
As to B1, in test [1], the binding result is given as “binds”.

B2: full-length KNL-2, yeast two-hybrid activation domain fusion (protein, UniProt O44548 1-877)
chain: MGDTEIVPLRVQNVLDSEIIRLNLWSMKFNATSFKLEGFVRNEEGTMMQKVCSEFICRRFTSTLLFDVSGRFFDLVGQIDREYQQKMGMPSRIIDEFSNGIPENWADLIYSCMSANQRSALRPIQQAPKEPIRTRTEPIVTLADETELTGGCQKNSENEKERNRREREEQQTKERERRLEEEKQRRDAEAEAERRRKEEEELEEANYTLRAPKSQNGEPITPIRFTRGHDNGGAKKVFIFEQTPVRKQGPIASSTPQQKQRLADGANNQIPPTQKSQDSVQAVQPPPPRPAARNAQFASDADLFAVPKAPPSKSVRNLAASNVDIFADVDSVLDTFHFESTPGRVRKPGRRNVSSPSPEPRHRSSSRDGYEQSRYSQRYEHDNSRWSRHNATYRRHEDESRMSRKRSIVRDDFEYSRRHDDGARRRDYYDADIQGDSKRYRGRDASSSSGRSVRFEEEHRRHGDEYRDPRGPRDYNDYGRRRNHANSRSGEDEEKLNAIVRREKELRNRLQKSQKASSSSYRHRSNSSDAEESLNEWDIENQELLDNSMMFGDGIPKRSNARKDKFVKKQATRSKPANSTKSPAQARKKKRASLEDNRDLNDSIACNRPRRSCVTPVAKKITWRKQDLDRLKRVIALKKPSASDADWTEVLRLLAKEGVVEPEVVRQIAITRLKWVEPEQNEEVLKQVEEVEQKRRRGAVARVKENVKMHEELREGGNHRAEDLQSGVESMEDYQPEDVAADQSLLALRTPIVTKKRGGTRASIMPKPVEDSPMSRGNNSTFNSPRLEQTKAKDIETNFKYVQHLSMMQARPSSRLKKSSSMNNSTYRGNKNTSISLEKGTQKALKIINRGTTIHEDDENEDNDDDDDMREEDTSIY
With B2, the binding entry in test [2] is listed as “binds weakly”.

B3: OLLAS-tagged KNL-2, from C. elegans embryos (protein, UniProt O44548 1-877)
chain: B2 chain
As for B3, the figures for the binding entry in test [3] and in test [4] were “binds” and “binds weakly”, respectively.
